Experimental findings from article PMC11745445 (2024) are described below.

Amino acid sequences for entries named in this document (tags omitted). Residues count along the entry.
UniProt Q62151, residues 23-402: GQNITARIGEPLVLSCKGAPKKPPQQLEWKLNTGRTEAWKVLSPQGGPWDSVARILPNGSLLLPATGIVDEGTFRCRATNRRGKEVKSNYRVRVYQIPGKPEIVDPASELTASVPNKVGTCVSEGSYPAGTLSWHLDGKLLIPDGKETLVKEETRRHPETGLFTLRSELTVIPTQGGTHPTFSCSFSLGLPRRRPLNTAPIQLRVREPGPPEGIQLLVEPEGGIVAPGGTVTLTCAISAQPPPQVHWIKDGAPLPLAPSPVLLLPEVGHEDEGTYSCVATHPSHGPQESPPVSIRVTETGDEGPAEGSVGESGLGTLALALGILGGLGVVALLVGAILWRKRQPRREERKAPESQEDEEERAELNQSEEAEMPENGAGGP

Experiment [1] has as its target RAGE (receptor for advanced glycation end products), endogenous in HT-22 cells (mouse (endogenous in HT-22)) (UniProt Q62151). Briefly: co-IP; lysate of MKK3-knockdown HT-22 cells re-expressing His-MKK3 wild type or K329A, after high glucose for 24 h; 200 ug protein, antibody or control IgG overnight at 4°C, protein A/G-agarose 2 h; IP and blot with His and RAGE antibodies in both directions.

For experiment [2], the target named is RAGE (receptor for advanced glycation end products), endogenous in the hippocampus of db/db mice (mouse (endogenous in db/db mouse hippocampus)) (UniProt Q62151). Briefly: co-IP; hippocampal lysate of MKK3-knockdown db/db mice injected with LV-MKK3-His-Wt or -Mut; 200 ug protein, antibody or control IgG overnight at 4°C, protein A/G-agarose 2 h; blots with RAGE and His antibodies.

These are yes or no findings as the source states them, for the method shown. In cells and extracts the contact can be indirect. Some binding calls cover weakened binding; strength is not graded here. Where a sequence is shown, tags or fusion partners need not be part of it.

B1: LV-MKK3-His-WT (His-labeled wild-type MKK3) in HT-22 cells (protein, UniProt O09110 1-347)
chain: MESPAASPPASLPQTKGKSKRKKDLRISCVSKPPVSNPTPPRNLDSRTFITIGDRNFEVEADDLVTISELGRGAYGVVEKVRHAQSGTIMAVKRIRATVNTQEQKRLLMDLDINMRTVDCFYTVTFYGALFREGDVWICMELMDTSLDKFYRKVLEKNMKIPEDILGEIAVSIVRALEHLHSKLSVIHRDVKPSNVLINKEGHVKMCDFGISGYLVDSVAKTMDAGCKPYMAPERINPELNQKGYNVKSDVWSLGITMIEMAILRFPYESWGTPFQQLKQVVEEPSPQLPADQFSPEFVDFTSQCLRKNPAERMSYLELMEHPFFTLHKTKKTDIAAFVKEILGEDS
For the molecule B1, the binding entry in experiment [1] was “binds”.

B2: LV-MKK3-His-Wt (His-labeled wild-type MKK3) in the hippocampus of db/db mice (protein, UniProt O09110 1-347)
chain: MESPAASPPASLPQTKGKSKRKKDLRISCVSKPPVSNPTPPRNLDSRTFITIGDRNFEVEADDLVTISELGRGAYGVVEKVRHAQSGTIMAVKRIRATVNTQEQKRLLMDLDINMRTVDCFYTVTFYGALFREGDVWICMELMDTSLDKFYRKVLEKNMKIPEDILGEIAVSIVRALEHLHSKLSVIHRDVKPSNVLINKEGHVKMCDFGISGYLVDSVAKTMDAGCKPYMAPERINPELNQKGYNVKSDVWSLGITMIEMAILRFPYESWGTPFQQLKQVVEEPSPQLPADQFSPEFVDFTSQCLRKNPAERMSYLELMEHPFFTLHKTKKTDIAAFVKEILGEDS
As to B2, the binding entry in experiment [2] is “binds”.
